Results published in PMC5082931.

By UniProt entry, the sequences of proteins in these tests, tags left out. Where a name states a change or a piece, a line headed by the entry shows the natural chain unless it says otherwise.
UniProt Q8BNA6: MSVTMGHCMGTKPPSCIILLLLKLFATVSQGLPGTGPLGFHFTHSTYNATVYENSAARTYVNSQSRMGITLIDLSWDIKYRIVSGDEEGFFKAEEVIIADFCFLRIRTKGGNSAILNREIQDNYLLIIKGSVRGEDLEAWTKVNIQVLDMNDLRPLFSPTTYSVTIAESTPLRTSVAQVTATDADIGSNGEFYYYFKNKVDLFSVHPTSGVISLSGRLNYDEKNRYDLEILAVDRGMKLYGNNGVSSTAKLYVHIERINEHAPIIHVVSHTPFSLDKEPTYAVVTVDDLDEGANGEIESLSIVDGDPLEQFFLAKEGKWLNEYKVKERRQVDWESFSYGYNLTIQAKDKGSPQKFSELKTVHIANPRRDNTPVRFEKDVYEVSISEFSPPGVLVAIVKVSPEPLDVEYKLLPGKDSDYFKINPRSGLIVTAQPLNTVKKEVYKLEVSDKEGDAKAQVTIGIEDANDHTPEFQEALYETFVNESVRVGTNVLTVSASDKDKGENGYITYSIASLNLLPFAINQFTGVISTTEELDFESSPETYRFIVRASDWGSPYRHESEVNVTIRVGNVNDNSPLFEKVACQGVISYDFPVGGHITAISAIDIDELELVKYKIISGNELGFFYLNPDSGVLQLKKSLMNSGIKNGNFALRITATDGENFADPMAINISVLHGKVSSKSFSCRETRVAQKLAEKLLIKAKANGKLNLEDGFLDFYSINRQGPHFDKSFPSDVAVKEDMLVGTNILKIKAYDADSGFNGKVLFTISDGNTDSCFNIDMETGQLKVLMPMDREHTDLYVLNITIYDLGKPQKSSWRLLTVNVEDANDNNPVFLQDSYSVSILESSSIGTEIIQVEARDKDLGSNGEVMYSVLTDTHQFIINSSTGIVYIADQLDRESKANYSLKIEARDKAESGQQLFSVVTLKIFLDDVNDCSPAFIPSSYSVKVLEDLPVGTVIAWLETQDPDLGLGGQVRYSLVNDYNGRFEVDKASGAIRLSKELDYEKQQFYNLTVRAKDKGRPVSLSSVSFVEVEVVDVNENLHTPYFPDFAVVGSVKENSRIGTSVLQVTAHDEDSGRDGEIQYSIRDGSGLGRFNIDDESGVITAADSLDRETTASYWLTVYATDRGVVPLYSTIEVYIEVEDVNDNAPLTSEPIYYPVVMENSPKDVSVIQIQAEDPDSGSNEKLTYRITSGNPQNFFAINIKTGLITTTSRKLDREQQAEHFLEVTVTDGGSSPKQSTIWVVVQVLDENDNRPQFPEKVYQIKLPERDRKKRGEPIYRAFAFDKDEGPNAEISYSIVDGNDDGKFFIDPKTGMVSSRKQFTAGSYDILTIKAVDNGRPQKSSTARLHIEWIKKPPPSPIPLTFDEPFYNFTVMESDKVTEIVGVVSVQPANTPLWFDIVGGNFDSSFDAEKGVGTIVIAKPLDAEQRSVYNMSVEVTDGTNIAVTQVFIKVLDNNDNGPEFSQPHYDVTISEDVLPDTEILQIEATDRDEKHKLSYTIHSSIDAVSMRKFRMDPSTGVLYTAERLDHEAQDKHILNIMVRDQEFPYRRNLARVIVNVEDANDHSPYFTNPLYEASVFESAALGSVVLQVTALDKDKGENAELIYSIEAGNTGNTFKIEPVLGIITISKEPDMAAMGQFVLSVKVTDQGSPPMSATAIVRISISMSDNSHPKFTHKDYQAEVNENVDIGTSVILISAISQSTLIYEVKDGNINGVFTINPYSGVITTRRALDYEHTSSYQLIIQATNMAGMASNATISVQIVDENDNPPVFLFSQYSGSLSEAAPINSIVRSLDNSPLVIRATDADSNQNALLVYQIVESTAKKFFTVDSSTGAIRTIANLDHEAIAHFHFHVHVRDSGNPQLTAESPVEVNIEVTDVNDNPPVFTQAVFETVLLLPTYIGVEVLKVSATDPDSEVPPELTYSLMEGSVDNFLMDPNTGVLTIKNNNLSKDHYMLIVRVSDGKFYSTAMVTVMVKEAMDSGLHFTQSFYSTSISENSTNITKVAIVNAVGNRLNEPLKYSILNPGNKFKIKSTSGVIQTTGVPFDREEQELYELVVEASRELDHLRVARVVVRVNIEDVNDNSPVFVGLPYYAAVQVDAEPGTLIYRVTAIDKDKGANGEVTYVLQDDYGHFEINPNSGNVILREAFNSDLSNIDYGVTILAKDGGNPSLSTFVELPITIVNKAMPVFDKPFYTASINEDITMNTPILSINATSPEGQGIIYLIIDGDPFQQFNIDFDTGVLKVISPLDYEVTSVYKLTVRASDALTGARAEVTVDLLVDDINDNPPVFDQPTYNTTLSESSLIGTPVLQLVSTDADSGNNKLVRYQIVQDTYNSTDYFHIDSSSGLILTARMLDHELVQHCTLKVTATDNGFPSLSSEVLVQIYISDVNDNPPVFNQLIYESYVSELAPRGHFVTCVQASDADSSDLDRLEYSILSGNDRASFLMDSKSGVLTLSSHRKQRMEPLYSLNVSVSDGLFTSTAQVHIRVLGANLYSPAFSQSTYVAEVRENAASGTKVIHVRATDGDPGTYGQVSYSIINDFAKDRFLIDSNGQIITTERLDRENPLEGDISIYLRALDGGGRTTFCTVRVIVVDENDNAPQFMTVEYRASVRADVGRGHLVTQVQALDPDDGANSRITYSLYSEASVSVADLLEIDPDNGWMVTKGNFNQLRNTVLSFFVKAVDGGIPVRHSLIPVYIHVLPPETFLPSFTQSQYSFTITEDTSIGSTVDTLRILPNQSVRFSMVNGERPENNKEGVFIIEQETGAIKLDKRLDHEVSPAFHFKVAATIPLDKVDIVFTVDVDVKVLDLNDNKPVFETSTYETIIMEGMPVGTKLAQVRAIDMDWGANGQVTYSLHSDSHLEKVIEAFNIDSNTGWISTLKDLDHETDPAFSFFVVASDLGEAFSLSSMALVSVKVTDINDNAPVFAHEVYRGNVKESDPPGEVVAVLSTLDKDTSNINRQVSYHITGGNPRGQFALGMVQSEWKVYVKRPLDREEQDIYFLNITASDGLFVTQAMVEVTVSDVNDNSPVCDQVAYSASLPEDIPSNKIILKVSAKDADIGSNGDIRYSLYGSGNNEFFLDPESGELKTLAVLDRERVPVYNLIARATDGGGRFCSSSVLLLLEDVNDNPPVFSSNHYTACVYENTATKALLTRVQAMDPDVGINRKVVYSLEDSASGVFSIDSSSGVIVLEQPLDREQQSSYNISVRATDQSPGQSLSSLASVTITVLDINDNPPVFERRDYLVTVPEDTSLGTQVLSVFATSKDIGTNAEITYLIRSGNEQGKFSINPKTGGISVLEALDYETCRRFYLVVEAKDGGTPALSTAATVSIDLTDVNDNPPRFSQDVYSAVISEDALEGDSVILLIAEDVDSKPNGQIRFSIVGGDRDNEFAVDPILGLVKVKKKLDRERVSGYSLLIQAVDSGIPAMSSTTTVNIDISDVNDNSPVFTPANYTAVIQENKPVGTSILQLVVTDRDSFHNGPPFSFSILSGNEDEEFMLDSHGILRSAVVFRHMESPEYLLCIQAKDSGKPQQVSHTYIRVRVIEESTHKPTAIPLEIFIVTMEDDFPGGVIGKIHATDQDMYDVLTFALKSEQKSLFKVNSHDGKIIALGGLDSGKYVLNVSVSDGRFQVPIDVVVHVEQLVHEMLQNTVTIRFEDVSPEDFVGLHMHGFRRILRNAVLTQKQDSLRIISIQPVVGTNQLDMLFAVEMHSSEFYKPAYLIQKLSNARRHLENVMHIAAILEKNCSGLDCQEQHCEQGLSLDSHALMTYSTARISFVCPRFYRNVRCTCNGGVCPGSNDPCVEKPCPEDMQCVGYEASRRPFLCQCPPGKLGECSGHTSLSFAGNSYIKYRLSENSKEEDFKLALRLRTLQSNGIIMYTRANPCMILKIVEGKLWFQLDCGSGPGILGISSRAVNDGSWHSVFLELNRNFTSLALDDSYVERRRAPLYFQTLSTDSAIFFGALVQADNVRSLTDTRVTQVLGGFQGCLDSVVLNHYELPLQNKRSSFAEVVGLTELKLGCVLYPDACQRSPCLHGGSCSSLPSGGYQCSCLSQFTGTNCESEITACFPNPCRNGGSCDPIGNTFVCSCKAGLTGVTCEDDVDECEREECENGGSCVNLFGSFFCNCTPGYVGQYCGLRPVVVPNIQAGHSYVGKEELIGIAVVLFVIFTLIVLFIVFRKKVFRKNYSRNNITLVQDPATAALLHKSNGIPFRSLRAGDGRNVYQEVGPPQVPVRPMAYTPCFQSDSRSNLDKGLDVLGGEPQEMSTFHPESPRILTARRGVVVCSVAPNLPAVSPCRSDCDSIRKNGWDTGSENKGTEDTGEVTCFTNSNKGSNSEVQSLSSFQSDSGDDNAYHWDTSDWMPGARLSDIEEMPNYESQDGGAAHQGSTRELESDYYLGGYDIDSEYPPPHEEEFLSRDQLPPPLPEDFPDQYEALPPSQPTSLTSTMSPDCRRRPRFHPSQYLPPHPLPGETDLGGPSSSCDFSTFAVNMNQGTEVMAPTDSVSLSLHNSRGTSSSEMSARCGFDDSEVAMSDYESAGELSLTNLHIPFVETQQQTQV
UniProt P33176: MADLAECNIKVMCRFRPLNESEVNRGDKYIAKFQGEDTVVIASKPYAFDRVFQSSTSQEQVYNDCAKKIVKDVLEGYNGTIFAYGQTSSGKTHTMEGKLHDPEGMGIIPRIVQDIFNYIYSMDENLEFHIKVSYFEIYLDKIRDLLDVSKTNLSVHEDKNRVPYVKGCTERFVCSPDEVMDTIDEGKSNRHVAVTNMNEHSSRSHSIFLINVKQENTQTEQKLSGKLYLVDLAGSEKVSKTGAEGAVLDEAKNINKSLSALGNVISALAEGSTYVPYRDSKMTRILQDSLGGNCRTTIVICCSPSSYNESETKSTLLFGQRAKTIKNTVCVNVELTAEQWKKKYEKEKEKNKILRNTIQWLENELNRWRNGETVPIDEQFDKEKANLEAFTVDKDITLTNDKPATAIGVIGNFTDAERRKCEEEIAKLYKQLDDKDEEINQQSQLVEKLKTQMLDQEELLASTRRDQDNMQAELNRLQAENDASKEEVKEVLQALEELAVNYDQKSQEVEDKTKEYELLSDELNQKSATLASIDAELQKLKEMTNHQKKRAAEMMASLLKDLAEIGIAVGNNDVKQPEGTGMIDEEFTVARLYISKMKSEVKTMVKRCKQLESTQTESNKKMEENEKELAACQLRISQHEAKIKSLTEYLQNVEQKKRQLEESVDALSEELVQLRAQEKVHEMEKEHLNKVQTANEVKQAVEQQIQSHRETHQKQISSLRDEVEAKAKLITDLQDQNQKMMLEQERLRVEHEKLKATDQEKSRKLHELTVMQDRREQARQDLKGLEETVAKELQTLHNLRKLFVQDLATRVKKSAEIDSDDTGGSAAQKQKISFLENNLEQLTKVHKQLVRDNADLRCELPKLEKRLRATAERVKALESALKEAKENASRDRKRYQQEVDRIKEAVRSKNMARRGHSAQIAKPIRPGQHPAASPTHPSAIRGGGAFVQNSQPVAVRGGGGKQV
UniProt P08138: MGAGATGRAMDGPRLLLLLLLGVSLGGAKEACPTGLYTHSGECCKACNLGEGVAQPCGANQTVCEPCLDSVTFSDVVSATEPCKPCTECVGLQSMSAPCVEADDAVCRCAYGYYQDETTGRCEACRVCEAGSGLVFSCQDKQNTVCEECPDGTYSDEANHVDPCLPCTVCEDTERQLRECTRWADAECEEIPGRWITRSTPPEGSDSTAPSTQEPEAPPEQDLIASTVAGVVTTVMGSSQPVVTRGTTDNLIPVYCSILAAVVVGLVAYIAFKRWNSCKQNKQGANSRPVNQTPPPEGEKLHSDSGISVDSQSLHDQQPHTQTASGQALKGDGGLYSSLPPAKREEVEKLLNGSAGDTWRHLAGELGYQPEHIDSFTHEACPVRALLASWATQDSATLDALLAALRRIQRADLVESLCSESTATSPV

Columns and labels:
GST-Fat3 ^ΔDNAYH (mouse) = GST-Fat3 ^ΔDNAYH (mouse) (UniProt Q8BNA6); experiment: pull-down; GST-Fat3 fusion proteins expressed in HEK293 cells, cleared lysate (20mM Tris-HCl pH 8.0, 137mM NaCl, 2mM EDTA, 1% NP-40, 10% glycerol) on Glutathione Sepharose 4B for 2h at 4°C; endogenous co-purified proteins seen by silver staining (band identified by tandem mass spectrometry) and by Western …
YFP-Kif5B = YFP-Kif5B (UniProt P33176); experiment: co-IP; HEK293 cells co-transfected with YFP-Kif5B and HA-tagged Fat3 or RFP-tagged P75^NTR constructs; YFP-Kif5B precipitated with goat anti-GFP antibodies, overnight at 4°C, lysis buffer 50mM Tris-HCl pH 8.0, 150mM NaCl, 1mM EDTA, 1% NP-40, 10% glycerol; non-specific IgG as control

Substance | binding (GST-Fat3 ^ΔDNAYH (mouse)) | binding (YFP-Kif5B)
Kif5B (endogenous, HEK293 cells) (from UniProt P33176 1-963) | no binding | 
P75-RFP ^ΔDGGLYS (from UniProt P08138) (receptor) |  | no binding

Results are given in words; binding and its absence hold for the method and conditions named. Binding seen in cells or lysates may run through a third protein.
